Measured values as given in the supplement of paper PMC12009310.
Structures can show the parent of a compound that is named as a salt. ± gives the standard deviation of the averaged measurements. The list shows a part of the results. Part of the spread comes from offsets between plates or batches.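 The cells are a mouse kidney inner medullary collecting duct line, silenced either for the ciliary gene Rpgrip1l or with a non-targeting control siRNA.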

Assays:
mIMCD3 [1] = assay: robust z score of cell number vs plate controls; higher = more cells (less cytotoxic); conditions: 10 µM, 48 h
mIMCD3 [2] = assay: robust z score of cilia incidence (% cells with single cilium) vs plate controls; higher = more ciliated cells; conditions: 10 µM; 48 h; siRNA: siScr
mIMCD3 [3] = assay: robust z score of cilia incidence (% cells with single cilium) vs plate controls; higher = more ciliated cells (rescue of cilia loss); conditions: 10 µM; 48 h; siRNA: siRpgrip1l

Structure (SMILES)	robust z score of cell number (mIMCD3 [1]; siRNA: siRpgrip1l)	robust z score of cell number (mIMCD3 [1]; siRNA: siScr)	robust z score of cilia incidence (mIMCD3 [2])	robust z score of cilia incidence (mIMCD3 [3])
O=c1cc(N2CCOCC2)oc2c1ccc1ccccc12	-19.4 ± 11	-19.8 ± 23	1.09 ± 0.99	-5.26 ± 9.4
COC(=O)C1=C(C)NC(C)=C([N+](=O)[O-])[C@H]1c1ccccc1C(F)(F)F	-39.8 ± 44	-6.28 ± 6.7	4.86 ± 2.8	-167 ± 110
COC(=O)Nc1ccc2[nH]cc(CCNC(C)=O)c2c1	-0.859 ± 1.9	-2.77 ± 0.41	-3.09 ± 5.3	-7.85 ± 1.7
COc1ccc(-n2[nH]c3c4c(ncc3c2=O)CCCCC4)cc1	-2.79 ± 4	-2.33 ± 1.4	0.352 ± 1.1	-6.9 ± 5
OC(CCCN1CCN(c2ncc(F)cn2)CC1)c1ccc(F)cc1 (centres undefined)	-24.8 ± 25	-2.99 ± 2.8	-2.25 ± 2.4	-196 ± 150
O=C1NC(=O)c2cc(Nc3ccc(F)cc3)c(Nc3ccc(F)cc3)cc21	-29.9 ± 15	-27.2 ± 5	-52.4 ± 39	-35 ± 20
CNc1cc2c(Nc3cccc(Br)c3)ncnc2cn1	-18.7 ± 4.5	-95.9 ± 81	-8.01 ± 2	-19.6 ± 4.8
COC1CCC(C(=O)c2ccc3nc4c(cc3c2)CCCO4)CC1 (centres undefined)	-9.71 ± 5.2	-3.22 ± 0.3	-3.62 ± 3.6	-17.2 ± 12
COC(=O)C1=C(C)NC(C)=C(C(=O)OC)C1c1ccccc1[N+](=O)[O-] [Nifedipine]	-9.47 ± 1.4	-3.74 ± 2.7	1.6 ± 1.7	-13.8 ± 3.7
O=C(NCCN1CCCCC1)c1ccc(I)cc1 [N-[2-(Piperidinylamino)ethyl]-4-iodobenzamide]	-1.02 ± 1.7	-3.32 ± 0.15	-5.78 ± 2.2	-9.83 ± 0.85
Cn1ccc2cc3c(cc21)CCN3C(=O)Nc1cccnc1	-9.4 ± 14	-4.51 ± 2.5	-1.93 ± 6.5	-119 ± 99
CC1c2ccccc2CN1CC1=NCCN1 (centres undefined)	-11.5 ± 8.8	-7.36 ± 0.65	-0.444 ± 0.14	-15.6 ± 0.7
CN1C(C(=O)Nc2ccccn2)=C(O)c2ccccc2S1(=O)=O [Piroxicam]	-3.17 ± 0.47	-5.08 ± 0.56	5.13 ± 4.7	-8.03 ± 2.2
CCN(CC)CCOC(=O)C1(c2ccc([N+](=O)[O-])cc2)CCCC1 [Nitrocaramiphen hydrochloride]	-50.7 ± 30	-42.6 ± 24	-28.2 ± 2.1	-31.9 ± 12
CCCOc1ccc(Br)cc1-c1cc(-c2ccc(Cl)cc2)[nH]c1-c1ccncc1	-6.67 ± 4.2	-1.22 ± 0.98	3.72 ± 3	-10.1 ± 5
N#CC(=C(/N)Sc1ccccc1N)/C(C#N)=C(/N)Sc1ccccc1N	-41.4 ± 55	-1.81 ± 2.2	0.979 ± 0.92	-6.8 ± 2.7
CN(C)C(=O)C(=O)c1cn(C)c2cc(Cl)c(C(=O)N3CCC(Cc4ccc(F)cc4)CC3)cc12	-43.6 ± 37	-16.6 ± 16	-4.42 ± 2.2	-24.8 ± 24
COC(=O)[C@@H]1CC2=CC(=O)CC[C@]2(C)[C@@]23O[C@@H]2C[C@@]2(C)[C@@H](CC[C@@]24CCC(=O)O4)[C@H]13 [Eplerenone]	-5.2 ± 3.6	0.183 ± 2.3	0.185 ± 0.39	-7.56 ± 5
FC(F)(F)c1cc(COC2CCCNC2c2ccccc2)cc(C(F)(F)F)c1 [L-733,060 hydrochloride]	-57.2 ± 46	-22.8 ± 5	-23.6 ± 0.19	-40.9 ± 9.6
Nc1c(Br)cc(Br)cc1CN[C@H]1CC[C@H](O)CC1 [Ambroxol hydrochloride]	-9.43 ± 5.4	-4.54 ± 1.6	-12.5 ± 10	-18.4 ± 12
CCc1c2c(nc3ccc(O)cc13)-c1cc3c(c(=O)n1C2)COC(=O)[C@]3(O)CC	-31.1 ± 29	-14.6 ± 13	-25 ± 15	-19.9 ± 0.48
O=C(C=Cc1ccccc1)NC(NC(=S)Nc1ccc(Cl)cc1)C(Cl)(Cl)Cl (centres undefined)	-52.6 ± 53	-26.9 ± 23	-11.3 ± 0.98	-20.9 ± 8.7
CC(NC(=O)c1ccccc1/N=C/c1c(O)ccc2ccccc12)c1ccccc1 (centres undefined) [Sirtinol]	-23.5 ± 26	-4.89 ± 0.29	-7.22 ± 12	-7.97 ± 4
COc1cccc(OC)c1OCCNCC1COc2ccccc2O1 (centres undefined) [WB 4101 hydrochloride]	-13.1 ± 1.6	-10.1 ± 7.4	-21.6 ± 7.1	-20.5 ± 3.8
O=C1NC(=O)C(c2ccccc2[N+](=O)[O-])=C1Nc1ccc(O)c(Cl)c1	-21.1 ± 28	-0.804 ± 1	2.21 ± 0.12	-147 ± 140
O=S1(=O)c2cccc3cccc(c23)N1CCCN1CCN(c2ccc(F)cc2)CC1 [Fananserin]	-32.7 ± 10	-144 ± 110	-63.4 ± 13	-53.3 ± 0.91

At a glance, part of the list above.
Structure (SMILES)	robust z score of cell number (mIMCD3 [1]; siRNA: siRpgrip1l)	robust z score of cell number (mIMCD3 [1]; siRNA: siScr)	robust z score of cilia incidence (mIMCD3 [2])	robust z score of cilia incidence (mIMCD3 [3])
N#CC(=C(/N)Sc1ccccc1N)/C(C#N)=C(/N)Sc1ccccc1N	-41.4 ± 55	-1.81 ± 2.2	0.979 ± 0.92	-6.8 ± 2.7
CN(C)C(=O)C(=O)c1cn(C)c2cc(Cl)c(C(=O)N3CCC(Cc4ccc(F)cc4)CC3)cc12	-43.6 ± 37	-16.6 ± 16	-4.42 ± 2.2	-24.8 ± 24
